These are yes or no findings as the source states them, for the method shown. Some entries that bind do so weakly or less than the wild type.
Assays:
[1] = target: His6-sortilin full length (Full) (human) (UniProt Q99523); experiment: non-reducing SDS-PAGE and Western blot; lysates of transfected HEK293 cells in non-reducing Laemmli buffer, anti-FLAG or anti-His6 blot; disulfide-linked homodimers and multimers; some cells treated with 2-FPA for 24 h
[2] = target: FLAG-sortilin wp (without propeptide) (human) (UniProt Q99523); experiment: as above

The chains behind the UniProt entries cited, without tags or fusion partners. Where a name states a change or a piece, a line headed by the entry shows the natural chain unless it says otherwise. Residues count along the entry.
UniProt Q99523, residues 78-831: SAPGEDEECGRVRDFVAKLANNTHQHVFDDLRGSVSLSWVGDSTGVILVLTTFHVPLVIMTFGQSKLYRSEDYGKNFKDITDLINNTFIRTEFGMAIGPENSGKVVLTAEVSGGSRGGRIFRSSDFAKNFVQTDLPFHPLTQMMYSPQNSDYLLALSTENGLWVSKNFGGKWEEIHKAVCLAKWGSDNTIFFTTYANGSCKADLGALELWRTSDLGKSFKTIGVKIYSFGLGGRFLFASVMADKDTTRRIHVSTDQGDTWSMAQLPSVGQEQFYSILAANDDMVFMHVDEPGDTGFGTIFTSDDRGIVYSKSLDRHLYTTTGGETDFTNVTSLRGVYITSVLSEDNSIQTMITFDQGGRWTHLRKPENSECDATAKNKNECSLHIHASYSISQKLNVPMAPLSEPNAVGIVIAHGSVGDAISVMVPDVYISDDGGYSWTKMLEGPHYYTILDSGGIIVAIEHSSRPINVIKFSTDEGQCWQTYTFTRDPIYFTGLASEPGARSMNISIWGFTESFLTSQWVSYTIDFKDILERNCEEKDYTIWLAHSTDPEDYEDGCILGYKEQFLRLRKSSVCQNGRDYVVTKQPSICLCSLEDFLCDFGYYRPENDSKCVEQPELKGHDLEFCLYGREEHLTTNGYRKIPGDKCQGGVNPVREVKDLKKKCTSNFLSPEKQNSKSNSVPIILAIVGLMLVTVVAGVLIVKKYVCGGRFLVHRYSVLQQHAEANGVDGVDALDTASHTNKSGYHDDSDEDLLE

Substance	binding [1]	binding [2]
His6-sortilin full length (Full) (from UniProt Q99523-1 78-831) (receptor)	binds	–
FLAG-sortilin wp (without propeptide) (from UniProt Q99523-1 34-831) (receptor)	–	binds

From publication PMC5868269
